In CN117551199A:
Results are given in words; binding and its absence hold for the method and conditions named. Some entries that bind do so weakly or less than the wild type. For part of these data: Where a sequence is shown, tags or fusion partners need not be part of it.

B1: Claudin18.2纳米抗体 12B (VHH, not shown: small tags and cut ends)
VHH: EVQLVESGGGSVQAGGSLRLSCAVSGYTYNLKYMGWFRQAPGKEREPVAFIYLGGDNQYYAPSVKDRFTISQDNAKNTVYLQMNSLKPDDTAMYYCAATTALLFLAQTSSWNYWGQGTQVTVSS
B2: 11C带Fc标签 (11C with Fc tag) (Fc fusion)
chain: DVQLQESGGGSVQAGGSLRLSCAASGAIYMRNYMAWFRQVPGKEREGVAGISASSGRTYYDDSVKGRFTISQDNAKNTVYLQMNSLKPEDTAMYFCAADPFQVMIDTMRYWGQGTQVTVSS
B3: 12B带Fc标签 (12B with Fc tag) (Fc fusion)
chain: EVQLVESGGGSVQAGGSLRLSCAVSGYTYNLKYMGWFRQAPGKEREPVAFIYLGGDNQYYAPSVKDRFTISQDNAKNTVYLQMNSLKPDDTAMYYCAATTALLFLAQTSSWNYWGQGTQVTVSS

Columns and labels:
[1] = target: T1, Claudin18.2抗原 (恺佧生物，货号CLD-HE1822) (UniProt P56856); experiment: ELISA, Claudin18.2 antigen coated at 100 ng/mL, HRP anti-Myc detection
T1 sequence (looked up): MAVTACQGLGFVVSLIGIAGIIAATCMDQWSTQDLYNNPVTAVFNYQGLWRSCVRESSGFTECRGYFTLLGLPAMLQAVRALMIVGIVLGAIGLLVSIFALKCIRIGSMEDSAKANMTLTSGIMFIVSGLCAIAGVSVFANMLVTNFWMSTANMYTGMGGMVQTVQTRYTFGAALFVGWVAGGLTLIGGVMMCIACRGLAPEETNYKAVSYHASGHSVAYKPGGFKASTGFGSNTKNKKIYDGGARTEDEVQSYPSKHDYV

Claudin18.2 VLP = target: T2, Claudin18.2 VLP (UniProt P56856); experiment: BLI, Fc-tagged nanobody captured on AHC sensor, Claudin18.2 VLP as analyte
T2 sequence: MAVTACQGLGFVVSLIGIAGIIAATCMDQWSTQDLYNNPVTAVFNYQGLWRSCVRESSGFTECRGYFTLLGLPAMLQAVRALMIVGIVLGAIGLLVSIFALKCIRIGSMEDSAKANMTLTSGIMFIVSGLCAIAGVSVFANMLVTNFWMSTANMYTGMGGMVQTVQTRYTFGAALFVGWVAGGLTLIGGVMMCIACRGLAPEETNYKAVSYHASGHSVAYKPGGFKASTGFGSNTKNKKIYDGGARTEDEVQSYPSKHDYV

Row | Binder | binding [1] | binding (Claudin18.2 VLP)
1 | B1 | binds | –
2 | B2 | – | binds
3 | B3 | – | binds
